A number of entries come with more than one value. The list is limited to them. There may be further records. Values given together differ for a reason that is not stated; some may be repeats, others may stem from another dose, organism or construct than stated.
Biological target: native rat brain NR2B receptors (Rattus norvegicus (Rat), UniProt P35439+Q00960)
Assay: NR2B radioligand binding assay in rat brain using [3H] (E)-N1-(2-methoxybenzyl)-cinnamidine
Conditions: read-out: inhibition constant (Ki), independent assays; high affinity site, rat brain membranes; tested as the radiolabelled form

The chains behind the UniProt entries cited, without tags or fusion partners. Residues count along the entry.
UniProt Q00960, 27-1482 limits assumed: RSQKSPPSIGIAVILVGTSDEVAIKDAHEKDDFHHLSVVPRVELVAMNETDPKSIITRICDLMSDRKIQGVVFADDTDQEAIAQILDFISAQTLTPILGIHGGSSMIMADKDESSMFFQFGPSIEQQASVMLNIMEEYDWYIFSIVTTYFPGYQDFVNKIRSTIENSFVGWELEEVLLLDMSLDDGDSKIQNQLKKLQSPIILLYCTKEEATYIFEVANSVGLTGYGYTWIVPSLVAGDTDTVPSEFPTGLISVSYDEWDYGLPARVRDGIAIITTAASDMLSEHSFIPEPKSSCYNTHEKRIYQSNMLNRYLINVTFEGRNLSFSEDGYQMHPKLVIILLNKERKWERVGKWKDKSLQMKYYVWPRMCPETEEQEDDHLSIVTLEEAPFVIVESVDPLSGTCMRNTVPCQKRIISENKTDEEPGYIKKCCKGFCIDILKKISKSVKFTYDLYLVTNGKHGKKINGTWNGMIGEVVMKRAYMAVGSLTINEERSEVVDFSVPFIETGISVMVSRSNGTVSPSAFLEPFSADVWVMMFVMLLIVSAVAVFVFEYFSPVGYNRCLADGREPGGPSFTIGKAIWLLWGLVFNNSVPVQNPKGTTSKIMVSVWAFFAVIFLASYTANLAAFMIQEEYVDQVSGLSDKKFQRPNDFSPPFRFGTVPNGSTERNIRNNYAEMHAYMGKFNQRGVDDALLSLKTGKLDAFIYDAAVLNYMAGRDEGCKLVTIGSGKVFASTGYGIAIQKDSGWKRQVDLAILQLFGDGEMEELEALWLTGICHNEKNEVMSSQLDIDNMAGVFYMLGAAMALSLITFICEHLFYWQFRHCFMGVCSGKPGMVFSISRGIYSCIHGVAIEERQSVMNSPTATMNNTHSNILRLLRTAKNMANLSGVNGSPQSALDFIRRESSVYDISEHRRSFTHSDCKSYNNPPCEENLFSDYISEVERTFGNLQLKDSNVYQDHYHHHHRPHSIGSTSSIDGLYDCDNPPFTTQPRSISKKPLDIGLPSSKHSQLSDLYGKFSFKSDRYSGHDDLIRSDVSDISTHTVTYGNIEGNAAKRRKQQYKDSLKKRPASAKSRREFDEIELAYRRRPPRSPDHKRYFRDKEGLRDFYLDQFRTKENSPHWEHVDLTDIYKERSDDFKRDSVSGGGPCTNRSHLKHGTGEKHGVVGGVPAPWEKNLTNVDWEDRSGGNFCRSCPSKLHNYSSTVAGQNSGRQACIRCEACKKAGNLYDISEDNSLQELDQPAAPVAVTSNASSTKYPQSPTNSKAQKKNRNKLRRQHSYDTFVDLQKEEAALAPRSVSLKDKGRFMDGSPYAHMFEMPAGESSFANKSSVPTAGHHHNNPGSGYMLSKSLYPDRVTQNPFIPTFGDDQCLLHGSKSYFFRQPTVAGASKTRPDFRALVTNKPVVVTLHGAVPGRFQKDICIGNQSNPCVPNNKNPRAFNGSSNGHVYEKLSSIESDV

In the case of COc1ccccc1CNC(=N)/C=C/c1ccccc1 [(E)-N1-(2-methoxybenzyl)-cinnamidine, reference compound], the Ki is reported as 0.193, 0.176, 0.41, 0.087 nM.

— patent publication US11752155B2, “Treatment of autism spectrum disorders, obsessive-compulsive disorder and anxiety disorders” (Rugen Holdings (Cayman) Limited, priority 2016, dated 2023)
